{"source": "patent US20240327871", "key": {"[1]": {"system": "T1, MG92-4 TnpA-like transposase (MG92-4-A) (metagenomic (uncultivated))", "T1 sequence (limits assumed)": "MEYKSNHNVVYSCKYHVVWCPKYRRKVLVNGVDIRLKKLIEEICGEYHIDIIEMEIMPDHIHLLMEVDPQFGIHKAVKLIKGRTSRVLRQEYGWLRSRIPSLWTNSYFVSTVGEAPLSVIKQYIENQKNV", "assay": "enzyme reaction in vitro", "details": "RE cleavage and insertion detected by NGS only, weak signal; 5 mM MgCl2, 37 C, 1 h; protein translated in vitro; protein details: C-terminal HA and His tags, PURExpress IVTT; single-stranded DNA"}, "[2]": {"system": "T2, MG92-3 TnpA-like transposase (MG92-3-A) (metagenomic (uncultivated))", "T2 sequence (limits assumed)": "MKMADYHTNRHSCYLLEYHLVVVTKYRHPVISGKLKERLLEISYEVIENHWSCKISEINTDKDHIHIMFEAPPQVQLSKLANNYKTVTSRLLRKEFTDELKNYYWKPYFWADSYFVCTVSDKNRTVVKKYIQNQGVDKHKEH", "assay": "enzyme reaction in vitro", "details": "5 mM MgCl2, 37 C, protein translated in vitro, protein details: C-terminal HA and His tags, PURExpress IVTT, single-stranded DNA"}}, "note": "Protein sequences can lack the tags named with them. For some of these results: The exact form of at least one protein or probe is not confirmed.", "data": [{"sequence": "CCCAAACCTATACGCTCGGGGACACCGTGTAAGACCTCGCTGGTGCAGGCGGTGGTGGCTGAACCGAGAATCCCCCGGCTTTAGCCGTGGGGAGTGTCAA [MG92-4 RE (transposon right end)]", "values": [{"measurement": "activity on this sequence", "setting": "[1]", "result": "active"}]}, {"sequence": "AATGAC [MG92-3 target insertion motif]", "values": [{"measurement": "activity on this sequence", "setting": "[2]; insertion motif identified from target/cargo junction", "result": "active"}]}, {"sequence": "TGAAAACAAACATTTTACCAAGGCCCGCAGGCTCCGTCTATAGCGACAAGCGCTAACTTTGGCTACGCTTGTCGTTTAGGCGGGGTTAGT [MG92-3 LE boundary (SEQ ID NO: 475)]", "values": [{"measurement": "activity on this sequence", "setting": "[2]; transposition of LE-Kan-RE ssDNA cargo, LE junction by Sanger and NGS, 20 mM HEPES pH 7.5, 160 mM NaCl, 1 h", "result": "active"}]}, {"sequence": "GTTTGCGCTGTATCTGTGGTCAGGTATCCACTCCTACCTAAAGTAGCAGGCATGAACGAAAGTTTATGCGGAGTTTGGAAGCCCCGTCTATATTCGCGAAAGCGGATTAGGCGGGGAGGGTTCAC [MG92-3 RE boundary (SEQ ID NO: 476)]", "values": [{"measurement": "activity on this sequence", "setting": "[2]; RE cleavage and insertion by Sanger, 1 h", "result": "active"}]}]}
